Some of the results follow. Residues, ends and D or L forms follow the SMILES beside them. *: point of attachment. Cbz = O=C(OCc1ccccc1)*
Legend:
Experiment in all cases: log2 fold change, soluble protein after heating vs DMSO (PISA); higher = thermal stabilisation; K562 cells, 10 uM, 30 min; active = over 0.2 and 3.5 SD of the protein, either way, in both replicates (recomputed)
[1] = compound: C#Cc1cccc(Nc2ncnc3cc(OCCOC)c(OCCOC)cc23)c1 [erlotinib]
Method in brief: (§1)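 K562 cells at 2×10^6 cells/mL were exposed to 10 μM compound for 30 min, then aliquots were heated for 3 min across 48°C-58°C, pooled, and extracted in PBS containing 0.5% NP-40 at 4°C. The supernatant after 21,000xg for 90 min was taken as soluble protein and measured by TMTpro 16plex LC-MS/MS with channel sums equalised. Thermal stability is reported relative to control samples, with values from duplicates. Fold changes are given on a log2 scale.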

Protein sequences, listed by entry. Tags and fused reporters are not part of them. Lines headed by an entry give the natural chain unless they say otherwise; changes in a name come on top.
UniProt P24468: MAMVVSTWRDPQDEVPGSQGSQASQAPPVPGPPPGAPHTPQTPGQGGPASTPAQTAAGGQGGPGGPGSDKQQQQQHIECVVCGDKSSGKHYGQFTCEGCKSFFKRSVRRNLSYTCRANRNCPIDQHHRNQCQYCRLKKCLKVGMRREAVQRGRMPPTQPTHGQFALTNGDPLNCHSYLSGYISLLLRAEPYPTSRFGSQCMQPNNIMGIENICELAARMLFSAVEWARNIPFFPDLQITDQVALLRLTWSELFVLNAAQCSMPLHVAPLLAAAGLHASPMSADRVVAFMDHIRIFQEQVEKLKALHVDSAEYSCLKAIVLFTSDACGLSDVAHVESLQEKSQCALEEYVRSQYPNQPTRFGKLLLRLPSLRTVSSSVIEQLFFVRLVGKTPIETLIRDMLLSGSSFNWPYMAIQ
UniProt Q9Y639: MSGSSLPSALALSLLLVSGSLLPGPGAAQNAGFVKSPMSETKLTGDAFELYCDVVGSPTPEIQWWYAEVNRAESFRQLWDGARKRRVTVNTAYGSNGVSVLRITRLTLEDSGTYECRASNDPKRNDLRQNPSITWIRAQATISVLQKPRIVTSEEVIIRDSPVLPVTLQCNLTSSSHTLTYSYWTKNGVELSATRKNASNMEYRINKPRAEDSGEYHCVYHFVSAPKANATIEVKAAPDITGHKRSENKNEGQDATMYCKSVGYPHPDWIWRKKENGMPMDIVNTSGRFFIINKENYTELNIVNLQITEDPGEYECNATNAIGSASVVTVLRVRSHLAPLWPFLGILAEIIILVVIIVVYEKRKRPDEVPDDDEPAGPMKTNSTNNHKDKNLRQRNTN
UniProt Q13287: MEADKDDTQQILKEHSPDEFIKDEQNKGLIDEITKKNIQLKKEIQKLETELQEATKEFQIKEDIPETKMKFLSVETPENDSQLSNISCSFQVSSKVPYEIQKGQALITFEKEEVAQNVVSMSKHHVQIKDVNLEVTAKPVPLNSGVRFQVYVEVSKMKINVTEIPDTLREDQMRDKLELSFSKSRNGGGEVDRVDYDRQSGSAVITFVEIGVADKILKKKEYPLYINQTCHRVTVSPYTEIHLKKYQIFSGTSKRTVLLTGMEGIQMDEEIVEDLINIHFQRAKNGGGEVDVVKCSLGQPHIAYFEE
UniProt Q9Y697: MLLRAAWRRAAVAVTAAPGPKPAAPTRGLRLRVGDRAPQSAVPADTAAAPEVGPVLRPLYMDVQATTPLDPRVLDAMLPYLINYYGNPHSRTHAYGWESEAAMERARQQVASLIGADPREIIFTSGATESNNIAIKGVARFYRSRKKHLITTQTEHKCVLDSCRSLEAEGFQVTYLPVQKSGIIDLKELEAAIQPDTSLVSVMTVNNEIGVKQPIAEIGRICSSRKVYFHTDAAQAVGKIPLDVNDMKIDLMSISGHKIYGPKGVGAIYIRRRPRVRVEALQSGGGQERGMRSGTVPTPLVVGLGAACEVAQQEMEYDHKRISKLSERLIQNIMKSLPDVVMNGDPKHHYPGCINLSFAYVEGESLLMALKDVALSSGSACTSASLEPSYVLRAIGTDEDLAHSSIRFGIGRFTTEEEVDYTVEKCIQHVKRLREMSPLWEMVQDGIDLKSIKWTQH
UniProt Q15653: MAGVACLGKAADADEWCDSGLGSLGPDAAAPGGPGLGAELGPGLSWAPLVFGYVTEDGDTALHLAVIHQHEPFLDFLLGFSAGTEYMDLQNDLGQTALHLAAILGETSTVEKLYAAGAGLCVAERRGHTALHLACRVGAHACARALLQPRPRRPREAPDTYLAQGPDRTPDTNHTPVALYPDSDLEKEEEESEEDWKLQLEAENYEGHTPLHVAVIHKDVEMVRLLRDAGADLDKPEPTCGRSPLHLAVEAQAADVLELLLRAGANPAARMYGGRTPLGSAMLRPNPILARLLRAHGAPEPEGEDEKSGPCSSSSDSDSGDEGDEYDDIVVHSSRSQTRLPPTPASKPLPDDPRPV
UniProt Q8TDX7: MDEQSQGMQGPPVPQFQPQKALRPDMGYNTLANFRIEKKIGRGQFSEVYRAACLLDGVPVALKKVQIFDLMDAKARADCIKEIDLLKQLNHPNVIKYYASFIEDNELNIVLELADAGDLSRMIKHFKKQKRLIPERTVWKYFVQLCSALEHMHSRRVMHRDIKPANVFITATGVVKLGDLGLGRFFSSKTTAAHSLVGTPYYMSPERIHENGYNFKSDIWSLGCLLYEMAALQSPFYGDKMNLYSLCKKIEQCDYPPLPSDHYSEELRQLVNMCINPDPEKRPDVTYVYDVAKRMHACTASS
UniProt Q9NX24: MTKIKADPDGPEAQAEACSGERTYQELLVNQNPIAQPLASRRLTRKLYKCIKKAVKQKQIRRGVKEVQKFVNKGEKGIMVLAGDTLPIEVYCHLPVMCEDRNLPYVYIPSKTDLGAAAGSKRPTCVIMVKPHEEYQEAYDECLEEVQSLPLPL
UniProt Q8TD19: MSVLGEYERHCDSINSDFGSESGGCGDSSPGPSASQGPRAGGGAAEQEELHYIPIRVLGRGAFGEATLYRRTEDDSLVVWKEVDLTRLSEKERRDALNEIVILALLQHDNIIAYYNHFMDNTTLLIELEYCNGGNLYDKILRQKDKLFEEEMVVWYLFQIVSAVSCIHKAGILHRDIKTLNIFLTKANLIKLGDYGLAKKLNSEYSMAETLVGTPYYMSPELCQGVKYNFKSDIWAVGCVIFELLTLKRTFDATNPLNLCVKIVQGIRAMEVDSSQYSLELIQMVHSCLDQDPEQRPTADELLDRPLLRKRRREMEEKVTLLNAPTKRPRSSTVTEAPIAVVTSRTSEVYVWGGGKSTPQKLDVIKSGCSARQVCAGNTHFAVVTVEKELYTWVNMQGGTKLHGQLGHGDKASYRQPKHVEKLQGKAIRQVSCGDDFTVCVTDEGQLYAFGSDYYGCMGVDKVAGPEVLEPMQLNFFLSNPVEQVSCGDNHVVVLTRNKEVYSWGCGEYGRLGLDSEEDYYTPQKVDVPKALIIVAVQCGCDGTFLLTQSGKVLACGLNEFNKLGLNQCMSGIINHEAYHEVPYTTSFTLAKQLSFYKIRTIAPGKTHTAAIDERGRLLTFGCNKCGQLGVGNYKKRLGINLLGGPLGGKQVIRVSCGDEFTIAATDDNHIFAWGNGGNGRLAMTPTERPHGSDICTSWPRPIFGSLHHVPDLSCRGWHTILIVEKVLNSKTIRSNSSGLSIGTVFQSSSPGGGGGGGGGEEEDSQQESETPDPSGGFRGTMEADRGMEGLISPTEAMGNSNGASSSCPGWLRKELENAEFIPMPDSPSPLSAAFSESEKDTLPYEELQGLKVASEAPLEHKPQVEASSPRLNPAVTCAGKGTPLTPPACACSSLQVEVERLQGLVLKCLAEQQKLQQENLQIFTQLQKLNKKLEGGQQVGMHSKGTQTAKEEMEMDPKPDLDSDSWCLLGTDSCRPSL
UniProt Q9UNZ2: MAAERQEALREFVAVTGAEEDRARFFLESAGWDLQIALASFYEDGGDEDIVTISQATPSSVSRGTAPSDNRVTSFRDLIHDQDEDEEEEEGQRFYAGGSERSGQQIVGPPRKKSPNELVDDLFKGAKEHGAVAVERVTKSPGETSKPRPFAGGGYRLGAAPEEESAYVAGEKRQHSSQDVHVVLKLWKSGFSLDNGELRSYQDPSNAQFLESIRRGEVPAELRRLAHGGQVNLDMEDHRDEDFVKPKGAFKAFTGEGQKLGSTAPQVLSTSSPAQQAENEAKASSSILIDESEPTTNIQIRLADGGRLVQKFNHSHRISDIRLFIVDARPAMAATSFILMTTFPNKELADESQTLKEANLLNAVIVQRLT
UniProt Q8WX92, whole entry, looked up: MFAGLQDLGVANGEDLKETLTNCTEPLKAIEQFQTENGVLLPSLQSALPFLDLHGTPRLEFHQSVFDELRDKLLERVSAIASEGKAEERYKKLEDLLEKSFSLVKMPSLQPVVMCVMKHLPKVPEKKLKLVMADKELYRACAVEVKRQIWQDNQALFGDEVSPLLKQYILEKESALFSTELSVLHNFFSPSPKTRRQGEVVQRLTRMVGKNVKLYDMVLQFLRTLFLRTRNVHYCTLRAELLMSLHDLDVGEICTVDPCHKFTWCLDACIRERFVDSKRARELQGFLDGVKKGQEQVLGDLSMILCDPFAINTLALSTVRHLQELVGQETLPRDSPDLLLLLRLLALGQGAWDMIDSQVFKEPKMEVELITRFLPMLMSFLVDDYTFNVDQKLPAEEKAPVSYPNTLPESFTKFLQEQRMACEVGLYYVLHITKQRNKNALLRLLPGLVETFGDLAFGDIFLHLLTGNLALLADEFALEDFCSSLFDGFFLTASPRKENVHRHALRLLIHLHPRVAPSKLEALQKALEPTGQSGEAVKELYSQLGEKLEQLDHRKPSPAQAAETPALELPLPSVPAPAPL
UniProt P22392, whole entry, looked up: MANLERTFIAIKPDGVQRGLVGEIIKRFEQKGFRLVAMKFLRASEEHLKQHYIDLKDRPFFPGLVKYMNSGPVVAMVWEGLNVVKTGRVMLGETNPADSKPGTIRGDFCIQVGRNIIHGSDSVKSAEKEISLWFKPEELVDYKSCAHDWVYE
UniProt P10588: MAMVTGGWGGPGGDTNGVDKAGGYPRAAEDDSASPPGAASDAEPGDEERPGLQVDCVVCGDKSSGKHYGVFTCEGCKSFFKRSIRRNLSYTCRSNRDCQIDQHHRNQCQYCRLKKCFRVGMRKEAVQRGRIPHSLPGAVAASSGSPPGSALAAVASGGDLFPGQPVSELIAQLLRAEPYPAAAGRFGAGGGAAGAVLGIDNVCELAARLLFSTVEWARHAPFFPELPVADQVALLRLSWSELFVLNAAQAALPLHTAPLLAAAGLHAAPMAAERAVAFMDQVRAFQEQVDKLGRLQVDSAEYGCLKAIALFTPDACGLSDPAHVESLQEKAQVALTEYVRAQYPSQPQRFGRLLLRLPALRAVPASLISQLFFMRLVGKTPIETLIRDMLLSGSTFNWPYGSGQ
UniProt O43847: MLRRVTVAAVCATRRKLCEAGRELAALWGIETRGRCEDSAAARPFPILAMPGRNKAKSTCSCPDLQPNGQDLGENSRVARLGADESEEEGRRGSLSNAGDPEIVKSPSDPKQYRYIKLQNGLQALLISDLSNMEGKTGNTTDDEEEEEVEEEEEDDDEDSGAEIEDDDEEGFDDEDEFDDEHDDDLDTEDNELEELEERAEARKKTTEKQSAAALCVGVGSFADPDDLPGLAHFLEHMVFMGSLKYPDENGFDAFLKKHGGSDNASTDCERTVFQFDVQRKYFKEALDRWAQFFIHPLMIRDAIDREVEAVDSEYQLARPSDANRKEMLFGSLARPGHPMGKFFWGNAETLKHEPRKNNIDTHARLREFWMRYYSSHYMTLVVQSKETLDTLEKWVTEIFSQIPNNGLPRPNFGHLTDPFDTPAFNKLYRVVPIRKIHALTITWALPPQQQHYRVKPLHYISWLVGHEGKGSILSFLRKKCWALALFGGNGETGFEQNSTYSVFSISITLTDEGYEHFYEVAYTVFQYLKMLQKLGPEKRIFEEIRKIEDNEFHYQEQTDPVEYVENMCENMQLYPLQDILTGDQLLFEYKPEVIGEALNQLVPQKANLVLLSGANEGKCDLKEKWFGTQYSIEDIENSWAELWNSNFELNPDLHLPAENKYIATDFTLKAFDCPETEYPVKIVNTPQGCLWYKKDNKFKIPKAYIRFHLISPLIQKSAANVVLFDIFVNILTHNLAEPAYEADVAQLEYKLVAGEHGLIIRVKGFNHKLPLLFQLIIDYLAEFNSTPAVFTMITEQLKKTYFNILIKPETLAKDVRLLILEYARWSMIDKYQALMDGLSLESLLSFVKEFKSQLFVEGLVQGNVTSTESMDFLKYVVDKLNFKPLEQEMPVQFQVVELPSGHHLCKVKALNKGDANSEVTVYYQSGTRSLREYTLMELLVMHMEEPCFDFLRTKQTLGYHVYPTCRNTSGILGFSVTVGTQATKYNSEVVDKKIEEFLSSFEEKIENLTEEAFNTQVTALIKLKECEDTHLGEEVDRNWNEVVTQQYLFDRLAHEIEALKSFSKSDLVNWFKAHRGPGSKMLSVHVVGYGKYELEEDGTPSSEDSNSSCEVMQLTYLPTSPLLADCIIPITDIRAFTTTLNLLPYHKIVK
UniProt Q9UMY1: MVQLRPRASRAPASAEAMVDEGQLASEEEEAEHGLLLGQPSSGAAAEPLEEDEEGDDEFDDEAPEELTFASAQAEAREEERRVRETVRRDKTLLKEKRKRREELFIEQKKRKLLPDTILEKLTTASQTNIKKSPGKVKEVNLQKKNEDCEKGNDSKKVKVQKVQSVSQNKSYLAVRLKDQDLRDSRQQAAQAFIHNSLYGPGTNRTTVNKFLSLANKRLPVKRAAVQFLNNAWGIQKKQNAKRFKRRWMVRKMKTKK

[2] = compound: C/C(=N\NC(=O)C1=CC(=CC=C1)S(=O)(=O)N2CCOCC2)/C3=C(C=CC(=C3)Cl)O
Method in brief: as §1

[3] = compound: C1=CC(=C(C=C1Cl)C2=NC3=NC=CN=C3C(=N2)NC4=CC=NC=C4)F
Method in brief: as §1

[4] = compound: C1=CC(=CC=C1C2=NC3=C(N2)C=C(C=C3)C(=O)N)OC4=CC=C(C=C4)Cl
Method in brief: as §1

[5] = compound: C1=CC2=C(C=CC(=C2)/C=C\3/C(=O)NC(=NCC4=CC=CS4)S3)N=C1
Method in brief: as §1

[6] = compound: C1=CC2=NC=CN=C2C=C1/C=C/3\C(=O)NC(=O)S3
Method in brief: as §1

[7] = compound: C1=CC=C(C=C1)C2=NC(=C(N2)C3=CC=NC=C3)C4=CC(=C(C=C4)Cl)O
Method in brief: as §1

[8] = compound: C1=CC=C2C(=C1)C3=NNC4=CC=CC(=C43)C2=O
Method in brief: as §1

[9] = compound: C1CCN(C1)C(=O)NC2=CC=CC(=C2)NC3=NC=C(C(=N3)NCCC4=CN=CN4)Br
Method in brief: as §1

[10] = compound: C1CN(CCC1(CC2=CC=C(C=C2)Cl)N)C3=NC=NC4=C3C=CN4
Method in brief: as §1

[11] = compound: C1COCCN1CCN2C3=CC=CC=C3N=C2NC(=O)C4=CC(=CC=C4)[N+](=O)[O-] [IRAK-1-4 Inhibitor I]
Method in brief: as §1

[12] = compound: C=CC(=O)N1CCC[C@@H](n2nc(-c3ccc(Oc4ccccc4)cc3)c3c(N)ncnc32)C1 [ibrutinib]
Method in brief: as §1

[13] = compound: CC(=O)c1cnc2ccc(-c3cc(Cl)c(O)c(Cl)c3)nc2c1N[C@H]1CC[C@H](CN(C)C)CC1
Method in brief: as §1

[14] = compound: CC(C)(C)Cn1c(N)nc2ccc(-c3[nH]c(C(C)(C)C)nc3-c3ccc(F)cc3)nc21 [ralimetinib]
Method in brief: as §1

[15] = compound: CC(C)(O)CC(=O)NCCn1ccc2ncnc(Nc3ccc(Oc4cccc(C(F)(F)F)c4)c(Cl)c3)c21
Method in brief: as §1

[16] = compound: CC(C)C1=C2N=C(C=C(N2N=C1)NCC3=CC=CC=C3)NCCCCCCN
Method in brief: as §1

[17] = compound: CC(C)C[C@@H](C=O)NC(=O)[C@H](CC(C)C)NC(=O)[C@H](CC(C)C)NC(=O)OCc1ccccc1
Method in brief: as §1

[18] = compound: CC(C)N(C[C@H]1O[C@@H](n2cnc3c(N)ncnc32)[C@H](O)[C@@H]1O)[C@H]1C[C@@H](CCc2nc3cc(C(C)(C)C)ccc3[nH]2)C1 [pinometostat]
Method in brief: as §1

[19] = compound: CC1=C(C(CC(=O)N1)C2=CC=C(C=C2)C(F)(F)F)C(=O)NC3=C(C=C4C(=C3)C=NN4)F
Method in brief: as §1

[20] = compound: CC1=C(C2=C(C=C1)C(=O)C3=CC=CC=C3N2CCCN)C
Method in brief: as §1

Target	log2 fold change [1]	log2 fold change [2]	log2 fold change [3]	log2 fold change [4]	log2 fold change [5]	log2 fold change [6]	log2 fold change [7]	log2 fold change [8]	log2 fold change [9]	log2 fold change [10]	log2 fold change [11]	log2 fold change [12]	log2 fold change [13]	log2 fold change [14]	log2 fold change [15]	log2 fold change [16]	log2 fold change [17]	log2 fold change [18]	log2 fold change [19]	log2 fold change [20]
NR2F2 (UniProt P24468)	inactive: 0.013	inactive: 0.005	inactive: 0.027	inactive: 0.005	inactive: 0.012	inactive: -0.005	inactive: -0.05	inactive: -0.026	inactive: -0.065	inactive: 0.02	inactive: -0.024	inactive: -0.028	inactive: 0.045	inactive: -0.098	inactive: -0.02	inactive: 0	inactive: 0.029	inactive: 0.027	inactive: -0.064	inactive: -0.015
NPTN (UniProt Q9Y639)	inactive: -0.013	inactive: 0.057	inactive: 0.036	inactive: -0.027	inactive: -0.105	inactive: 0.008	inactive: 0.036	inactive: 0.033	inactive: -0.017	inactive: 0.04	inactive: 0.039	inactive: 0.017	inactive: -0.004	inactive: -0.013	inactive: -0.094	inactive: 0.159	inactive: -0.006	inactive: -0.053	inactive: -0.038	inactive: 0.014
NMI (UniProt Q13287)	inactive: 0.023	inactive: 0.015	inactive: 0.081	inactive: 0.013	inactive: 0.056	inactive: -0.007	inactive: -0.011	inactive: 0	inactive: 0.023	inactive: 0.05	inactive: 0.005	inactive: 0.015	inactive: -0.023	inactive: -0.063	inactive: -0.029	inactive: 0.028	inactive: 0.017	inactive: -0.001	inactive: -0.014	inactive: 0.012
NFS1 (UniProt Q9Y697)	inactive: -0.02	inactive: 0.064	inactive: 0.064	inactive: -0.007	inactive: 0.021	inactive: -0.01	inactive: 0.006	inactive: 0.018	inactive: -0.011	inactive: 0.027	inactive: 0.027	inactive: -0.012	inactive: -0.035	inactive: -0.033	inactive: -0.052	inactive: 0.041	inactive: -0.024	inactive: -0.057	inactive: -0.05	inactive: 0.014
NFKBIB (UniProt Q15653)	inactive: -0.017	inactive: -0.029	inactive: 0.039	inactive: 0.018	inactive: 0.047	inactive: 0.051	inactive: 0.049	inactive: 0.06	inactive: -0.082	inactive: 0.044	inactive: -0.05	inactive: -0.059	inactive: 0.077	inactive: 0.002	inactive: -0.046	inactive: -0.022	inactive: -0.026	inactive: 0.009	inactive: -0.051	inactive: 0.025
NEK7 (UniProt Q8TDX7)	inactive: 0.022	inactive: 0	inactive: 0.021	inactive: -0.003	inactive: 0.073	inactive: 0.013	inactive: 0.01	inactive: -0.002	inactive: 0.013	inactive: 0.141	inactive: 0.007	inactive: 0.065	inactive: -0.037	inactive: -0.045	inactive: -0.076	inactive: -0.047	inactive: 0.076	inactive: -0.002	inactive: 0.001	inactive: 0.102
NF1 (UniProt P21359)	inactive: 0.015	inactive: 0.031	inactive: -0.033	inactive: 0.03	inactive: 0.062	inactive: 0.11	inactive: 0.004	inactive: -0.058	inactive: -0.08	inactive: -0.027	inactive: 0.005	inactive: -0.147	inactive: -0.163	inactive: 0.066	inactive: 0.091	inactive: 0.039	inactive: -0.008	inactive: 0.066	inactive: 0.148	inactive: 0.126
NHP2 (UniProt Q9NX24)	inactive: -0.024	inactive: -0.151	inactive: -0.179	inactive: 0.011	inactive: -0.107	inactive: 0.032	inactive: -0.08	inactive: -0.02	inactive: -0.019	inactive: -0.075	inactive: 0.115	inactive: 0.051	inactive: 0.031	inactive: 0.067	inactive: 0.058	inactive: 0.181	inactive: 0.085	inactive: 0.052	inactive: 0.021	inactive: 0.041
NEK9 (UniProt Q8TD19)	inactive: 0.018	inactive: 0.018	inactive: 0.054	inactive: -0.008	inactive: 0.013	inactive: 0.055	inactive: -0.033	inactive: 0.004	inactive: 0.006	inactive: 0.019	inactive: 0.003	inactive: 0.006	inactive: -0.046	inactive: -0.028	inactive: -0.059	inactive: -0.074	inactive: 0.008	inactive: 0.004	inactive: -0.009	inactive: -0.035
NSFL1C isoform 5 (UniProt Q9UNZ2)	inactive: -0.005	inactive: 0.03	inactive: 0.045	inactive: 0.002	inactive: 0.019	inactive: 0.045	inactive: -0.02	inactive: -0.012	inactive: -0.013	inactive: -0.03	inactive: 0	inactive: -0.014	inactive: -0.009	inactive: -0.031	inactive: -0.075	inactive: -0.014	inactive: 0.004	inactive: -0.062	inactive: -0.003	inactive: 0.007
NELFB isoform 2 (UniProt Q8WX92)	inactive: 0.046	inactive: 0.151	inactive: 0	inactive: -0.036	inactive: 0.054	inactive: 0.07	inactive: -0.049	inactive: 0.01	inactive: -0.075	inactive: -0.025	inactive: -0.03	inactive: -0.045	inactive: -0.144	inactive: -0.067	inactive: -0.154	inactive: -0.112	inactive: 0.001	inactive: 0.022		inactive: 0.042
NME2 isoform 2 (UniProt P22392)	inactive: 0.016	inactive: -0.011	inactive: 0.042	inactive: 0.002	inactive: 0.054	inactive: 0	inactive: -0.022	inactive: -0.023	inactive: 0.025	inactive: 0.055	inactive: 0.044	inactive: 0.021	inactive: -0.011	inactive: -0.053	inactive: 0.021	inactive: 0.069	inactive: -0.013	inactive: -0.032	inactive: 0.024	inactive: 0.023
NR2F6 (UniProt P10588)	inactive: -0.207	inactive: 0.039	inactive: -0.03	inactive: 0.155	inactive: 0.039	inactive: 0.014	inactive: 0.013	inactive: -0.105	inactive: -0.028	inactive: -0.115	inactive: -0.067	inactive: 0.004	inactive: 0.031	inactive: -0.006	inactive: 0.013	inactive: 0.08	inactive: -0.122	inactive: 0	inactive: 0.053	inactive: -0.081
NEU1 (UniProt Q99519)	inactive: 0.001	inactive: -0.05	inactive: -0.027	inactive: 0.101	inactive: 0.003	inactive: 0	inactive: -0.018	inactive: -0.011	inactive: 0.012	inactive: -0.047	inactive: -0.136	inactive: -0.069	inactive: -0.175	inactive: 0.05	inactive: 0.018	active: -0.379	inactive: 0.166	inactive: -0.021		inactive: -0.131
NRDC isoform 2 (UniProt O43847)	inactive: -0.016	inactive: 0.081	inactive: 0.012	inactive: -0.024	inactive: 0.021	inactive: 0.024	inactive: 0.027	inactive: 0.057	inactive: -0.046	inactive: 0.049	inactive: 0.003	inactive: -0.033	inactive: -0.026	inactive: 0.011	inactive: -0.04	inactive: 0.053	inactive: 0.029	inactive: 0.015		inactive: 0.037
NOL7 (UniProt Q9UMY1)	inactive: -0.151	inactive: -0.208	active: -0.728	inactive: 0.005	inactive: -0.179	inactive: 0	inactive: -0.071	inactive: -0.058	inactive: 0.045	inactive: -0.189	inactive: -0.139	inactive: 0.036	inactive: 0.158	inactive: 0.041	inactive: 0.043	inactive: 0.016	inactive: 0.141	inactive: 0.242		inactive: -0.485
